These are yes or no findings as the source states them, for the method shown. Binding seen in cells or lysates may run through a third protein. Some results given as binding are weak or reduced against the parent protein; the word gives no strength.
Target: human antigen R (HuR)/embryonic lethal abnormal vision-like (ELAVL1), endogenous (human (endogenous in HEK293)) (UniProt Q15717)
Experiment: co-IP; endogenous proteins of HEK293 cells; lysate incubated with anti-HuR or anti-PARP1 antibody (3 μg) overnight at 4 °C, protein G agarose 3 h, immunoblot; cells mock treated or TNFα 1 h, ± Olaparib or SB203580, or siRNA against PARP1 or p38

By UniProt entry, the sequences of proteins in these tests, tags left out.
UniProt Q15717: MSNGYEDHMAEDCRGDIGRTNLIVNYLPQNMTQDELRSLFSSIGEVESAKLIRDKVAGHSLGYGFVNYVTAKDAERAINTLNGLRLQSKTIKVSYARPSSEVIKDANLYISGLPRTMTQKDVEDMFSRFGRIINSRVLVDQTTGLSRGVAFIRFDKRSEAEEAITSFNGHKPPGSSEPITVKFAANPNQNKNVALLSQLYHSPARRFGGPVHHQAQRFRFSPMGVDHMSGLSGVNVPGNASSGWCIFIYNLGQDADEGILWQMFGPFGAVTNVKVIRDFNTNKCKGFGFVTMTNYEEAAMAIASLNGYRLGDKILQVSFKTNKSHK
UniProt O14980: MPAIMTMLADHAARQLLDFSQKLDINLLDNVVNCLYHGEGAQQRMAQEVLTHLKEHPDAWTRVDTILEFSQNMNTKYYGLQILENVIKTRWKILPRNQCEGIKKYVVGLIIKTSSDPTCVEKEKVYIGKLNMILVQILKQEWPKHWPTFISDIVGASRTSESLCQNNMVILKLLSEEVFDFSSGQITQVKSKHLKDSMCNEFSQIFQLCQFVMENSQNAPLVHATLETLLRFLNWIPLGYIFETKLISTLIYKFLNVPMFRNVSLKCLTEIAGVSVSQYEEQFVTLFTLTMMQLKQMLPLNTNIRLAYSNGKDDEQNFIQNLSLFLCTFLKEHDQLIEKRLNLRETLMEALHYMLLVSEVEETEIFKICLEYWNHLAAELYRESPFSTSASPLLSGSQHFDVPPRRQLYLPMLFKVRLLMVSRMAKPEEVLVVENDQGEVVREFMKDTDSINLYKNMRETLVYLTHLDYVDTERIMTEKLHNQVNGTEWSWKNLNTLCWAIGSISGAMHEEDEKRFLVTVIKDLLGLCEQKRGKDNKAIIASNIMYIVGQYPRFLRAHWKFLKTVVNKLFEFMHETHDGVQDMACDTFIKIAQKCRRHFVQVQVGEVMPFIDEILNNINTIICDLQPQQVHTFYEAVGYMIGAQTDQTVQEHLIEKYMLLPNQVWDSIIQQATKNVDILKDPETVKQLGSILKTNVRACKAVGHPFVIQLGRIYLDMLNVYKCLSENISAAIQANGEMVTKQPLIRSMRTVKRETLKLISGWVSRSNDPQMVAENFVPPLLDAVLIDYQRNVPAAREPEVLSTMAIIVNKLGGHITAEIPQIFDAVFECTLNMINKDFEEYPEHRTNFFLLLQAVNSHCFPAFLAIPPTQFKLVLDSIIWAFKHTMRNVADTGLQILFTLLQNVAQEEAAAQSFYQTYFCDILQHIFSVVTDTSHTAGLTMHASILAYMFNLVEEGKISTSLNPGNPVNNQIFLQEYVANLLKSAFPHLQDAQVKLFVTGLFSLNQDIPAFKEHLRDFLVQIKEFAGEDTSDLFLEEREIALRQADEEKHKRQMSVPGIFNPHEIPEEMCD

With “CRM1, endogenous (from UniProt O14980 1-1071) (other; other documents disagree on this pair)” the binding was “binds”.
